From PMC8632500, “Identification of Conserved and Divergent Strigolactone Receptors in Sugarcane Reveals a Key Residue Crucial for Plant Branching Control” (Frontiers in Plant Science, 2021) come the findings set out here.

In this assay the target is BD-SsD14bP304R (Saccharum spontaneum). Description: two-hybrid; yeast AH109; D14 proteins as GAL4-BD baits, MAX2/D3 and SMXL7/D53 as GAL4-AD preys; serial 10-fold dilutions spotted on selective medium (SD/-Leu/-Trp/-His/-Ala as printed) with 5 μM rac-GR24 or DMSO; 4 days at 30°C.

Results are given in words; binding and its absence hold for the method and conditions named. Binding calls can cover weak binding; strength is not graded here. Tags and fused reporters may be left off the sequences shown.

B1: AD-AtMAX2 (Arabidopsis thaliana MORE AXILLARY GROWTH2 fused to GAL4-AD) (protein, UniProt Q9SIM9 1-693)
chain: MASTTLSDLPDVILSTISSLVSDSRARNSLSLVSHKFLALERSTRSHLTIRGNARDLSLVPDCFRSISHLDLSFLSPWGHTLLASLPIDHQNLLALRLKFCFPFVESLNVYTRSPSSLELLLPQWPRIRHIKLLRWHQRASQIPTGGDFVPIFEHCGGFLESLDLSNFYHWTEDLPPVLLRYADVAARLTRLDLLTASFTEGYKSSEIVSITKSCPNLKTFRVACTFDPRYFEFVGDETLSAVATSSPKLTLLHMVDTASLANPRAIPGTEAGDSAVTAGTLIEVFSGLPNLEELVLDVGKDVKHSGVALEALNSKCKKLRVLKLGQFQGVCSATEWRRLDGVALCGGLQSLSIKNSGDLTDMGLVAIGRGCCKLTTFEIQGCENVTVDGLRTMVSLRSKTLTDVRISCCKNLDTAASLKAIEPICDRIKRLHIDCVWSGSEDEEVEGRVETSEADHEEEDDGYERSQKRCKYSFEEEHCSTSDVNGFCSEDRVWEKLEYLSLWINVGEFLTPLPMTGLDDCPNLEEIRIKIEGDCRGKRRPAEPEFGLSCLALYPKLSKMQLDCGDTIGFALTAPPMQMDLSLWERFFLTGIGSLSLSELDYWPPQDRDVNQRSLSLPGAGLLQECLTLRKLFIHGTAHEHFMNFLLRIPNLRDVQLRADYYPAPENDMSTEMRVGSCSRFEDQLNSRNIID
Regarding B1, the binding result is on record as “binds”.
